Test [1] deals with Myc-tagged wild-type (WT) SNAP25 (synaptosomal-associated protein 25) (UniProt P60880). Kind of test: co-IP; HEK293T cells transfected with Flag-TNFAIP1 (full length or truncations) and Myc-SNAP25; IP with anti-Flag or anti-Myc antibody and protein A/G magnetic beads, IB with anti-Flag or anti-Myc.
For test [2], the target named is endogenous SNAP25 (HT22 cells) (mouse (endogenous in HT22)) (UniProt P60879). Kind of test: co-IP; HT22 cell lysate, endogenous proteins; IP with anti-SNAP25 antibody, protein A/G magnetic beads.

The chains behind the UniProt entries cited, without tags or fusion partners.
UniProt P60880: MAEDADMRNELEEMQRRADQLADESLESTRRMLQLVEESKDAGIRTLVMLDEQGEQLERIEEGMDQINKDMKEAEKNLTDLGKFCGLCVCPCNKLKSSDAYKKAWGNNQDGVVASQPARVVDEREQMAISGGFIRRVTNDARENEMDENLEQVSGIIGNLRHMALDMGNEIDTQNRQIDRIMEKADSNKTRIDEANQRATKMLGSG
UniProt P60879: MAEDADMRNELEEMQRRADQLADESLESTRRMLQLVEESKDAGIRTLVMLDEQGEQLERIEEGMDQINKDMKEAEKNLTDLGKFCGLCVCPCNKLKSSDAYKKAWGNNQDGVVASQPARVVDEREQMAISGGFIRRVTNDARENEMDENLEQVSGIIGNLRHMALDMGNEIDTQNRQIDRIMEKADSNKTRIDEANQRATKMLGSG

We go through two molecules from publication PMC10722859.

Results are given in words; binding and its absence hold for the method and conditions named. Binding seen in cells or lysates may run through a third protein. Some results given as binding are weak or reduced against the parent protein; the word gives no strength. For some assays here: Sequences can lack the tags named with a protein.

B1: Flag-tagged full-length (FL) TNFAIP1 (tumor necrosis factor α-induced protein 1) (protein, UniProt Q13829 1-316)
chain: MSGDTCLCPASGAKPKLSGFKGGGLGNKYVQLNVGGSLYYTTVRALTRHDTMLKAMFSGRMEVLTDKEGWILIDRCGKHFGTILNYLRDDTITLPQNRQEIKELMAEAKYYLIQGLVNMCQSALQDKKDSYQPVCNIPIITSLKEEERLIESSTKPVVKLLYNRSNNKYSYTSNSDDHLLKNIELFDKLSLRFNGRVLFIKDVIGDEICCWSFYGQGRKLAEVCCTSIVYATEKKQTKVEFPEARIYEETLNVLLYETPRVPDNSLLEATSRSRSQASPSEDEETFELRDRVRRIHVKRYSTYDDRQLGHQSTHRD
Consider B1, for which, in test [1], the binding result is listed as “binds”.

B2: endogenous TNFAIP1 (HT22 cells) (protein, UniProt O70479 1-316)
chain: MSGDTCLCPASGAKPKISGFKGGGLGNKYVQLNVGGSLYYTTVRALTRHDTMLKAMFSGRMEVLTDKEGWILIDRCGKHFGTILNYLRDDTITLPQSRQEIQELMAEAKYYLIQGLVSTCQTALQDKKDSYQPVCNIPIITSLREEDRLIESSTKPVVKLLYNRSNNKYSYTSNSDDHLLKNIELFDKLSLRFNGRVLFIKDVIGDEICCWSFYGQGRKLAEVCCTSIVYATEKKQTKVEFPEARIYEETLNVLLYETPRVPDNSLLEATSRSRSQASPSEDEDTFELRDRVRRIHVKRYSTYDDRQLGHQSTHRD
Turning to B2, the binding result in test [2] is “binds”.
